The record followed here is publication PMC3149646.

The chains behind the UniProt entries cited, without tags or fusion partners.
UniProt P42771: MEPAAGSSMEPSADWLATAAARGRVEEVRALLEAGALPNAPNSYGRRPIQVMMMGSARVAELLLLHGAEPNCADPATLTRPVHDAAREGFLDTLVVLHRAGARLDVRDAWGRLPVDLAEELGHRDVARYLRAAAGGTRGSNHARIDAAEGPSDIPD

This assay has as its target p16-Myc (pCDEF-Myc-p16) (UniProt P42771). Nature of the assay: co-IP; 293T cells co-transfected with Myc- and Flag-tagged constructs; lysate immunoprecipitated with anti-Myc antibody, Western blot with Flag and Myc antibodies. For orientation: Immunoblotting shows a protein as a band on a membrane.

These are yes or no findings as the source states them, for the method shown. Binding seen in cells or lysates may run through a third protein. Some binding calls cover weakened binding; strength is not graded here. Where a sequence is shown, tags or fusion partners need not be part of it.

B1: TSSK1-Flag (pCDEF-Flag-TSSK1) (enzyme, UniProt Q9BXA7 1-367)
chain: MDDAAVLKRRGYLLGINLGEGSYAKVKSAYSERLKFNVAIKIIDRKKAPADFLEKFLPREIEILAMLNHCSIIKTYEIFETSHGKVYIVMELAVQGDLLELIKTRGALHEDEARKKFHQLSLAIKYCHDLDVVHRDLKCDNLLLDKDFNIKLSDFSFSKRCLRDDSGRMALSKTFCGSPAYAAPEVLQGIPYQPKVYDIWSLGVILYIMVCGSMPYDDSNIKKMLRIQKEHRVNFPRSKHLTGECKDLIYHMLQPDVNRRLHIDEILSHCWMQPKARGSPSVAINKEGESSRGTEPLWTPEPGSDKKSATKLEPEGEAQPQAQPETKPEGTAMQMSRQSEILGFPSKPSTMETEEGPPQQPPETRAQ
Turning to B1, the binding entry was “binds”.
